Test results as given in US9481669B2, “Pladienolide pyridine compounds and methods of use” (Eisai R&D Management Co., Ltd., priority 2014, dated 2016).
Some results were stated once for a whole list of compounds, not compound by compound.

Test: pH stability measurement (UPLC, 0.1 N HCl)
Type: physicochemical
Details: pH 1, 24-hour period
Experimental: Compounds were provided in 96-well plates and tested in triplicate. Four microliters of a 10 mM stock solution of compound in DMSO were distributed into each of three wells. The plate was stored at or below −20° C. until the day of the analysis. Methanol (HPLC grade) and 0.1 N HCl (EMD catalog HX0603A-6) were used for dilutions. Acetonitrile (HPLC grade), water (Milli-Q filtered), trifluoroacetic acid (spectral grade) and 0.2M phosphate buffer (Wako, catalog no. 163-14471) were used to prepare the mobile phase for the two analyses.
Stability data was obtained using a Waters Acquity UPLC equipped with a UV detector (Waters TUV) and single quadrupole MS detector (Waters SQD). The 96-well plate containing the compound(s) of interest was(were) removed from the freezer and allowed to warm to room temperature for one hour. The UPLC was primed, equilibrated and the system performance was verified by injecting a standard. After 1 hour, each of the three wells was diluted with 266 μL 0.1 N HCl to give pH=1. The plate was covered and placed on a shaker (Eppindorf Thermomixer R) for 45 minutes at 600 rpm. The plate was removed from the shaker, and the contents of each well were filtered through a filtration plate (Millipore catalog no. MSSLBPC50) by vacuum and injected into the UPLC. After approximately 24 hours, the contents of the wells were re-injected into the UPLC.
Stability in the various buffers was measured by comparing the peak area- % of the analyte in methanol versus the peak area- % of the analyte at the same retention time in 0.1 N HCl buffer in the 24 hr time point injection.

SMILES | stability at pH 1 compared with E7107
C/C(=C\C=C\[C@@H](C)c1ccccn1)[C@H]1OC(=O)C[C@H](O)CC[C@@](C)(O)[C@@H](OC(=O)N2CCN(C3CCCCCC3)CC2)/C=C/[C@@H]1C [Compound 1, (2S,3S,6S,7R,10R,E)-7,10-dihydroxy-3,7-dimethyl-12-oxo-2-((R,2E,4E)-6-(pyridin-2-yl)hepta-2,4-dien-2-yl)oxacyclododec-4-en-6-yl 4-cycloheptylpiperazine-1-carboxylate] | greater stability at pH 1 than compound E7107
C/C(=C\C=C\[C@@H](C)c1ccccn1)[C@H]1OC(=O)C[C@H](O)CC[C@@](C)(O)[C@@H](OC(=O)N2CCN(C)CC2)/C=C/[C@@H]1C [Compound 2, (2S,3 S,6S,7R,10R,E)-7,10-dihydroxy-3,7-dimethyl-12-oxo-2-((R,2E,4E)-6-(pyridin-2-yl)hepta-2,4-dien-2-yl)oxacyclododec-4-en-6-yl 4-methylpiperazine-1-carboxylate] | greater stability at pH 1 than compound E7107
C/C(=C\C=C\[C@@H](C)c1ccccn1)[C@H]1OC(=O)C[C@H](O)CC[C@@](C)(O)[C@@H](OC(=O)N2CCC(N3CCCCC3)CC2)/C=C/[C@@H]1C [Compound 4, (2S,3 S,6S,7R,10R,E)-7,10-dihydroxy-3,7-dimethyl-12-oxo-2-((R,2E,4E)-6-(pyridin-2-yl)hepta-2,4-dien-2-yl)oxacyclododec-4-en-6-yl[1,4′-bipiperidine]-1′-carboxylate] | greater stability at pH 1 than compound E7107
C/C(=C\C=C\[C@@H](C)c1ccccn1)[C@H]1OC(=O)C[C@H](O)CC[C@@](C)(O)[C@@H](OC(=O)N2CCC(N3CCCCCC3)CC2)/C=C/[C@@H]1C [Compound 3, (2S,3S,6S,7R,10R,E)-7,10-dihydroxy-3,7-dimethyl-12-oxo-2-((R,2E,4E)-6-(pyridin-2-yl)hepta-2,4-dien-2-yl)oxacyclododec-4-en-6-yl 4-(azepan-1-yl)piperidine-1-carboxylate] | greater stability at pH 1 than compound E7107
